In ChEMBL document CHEMBL4321792, “Discovery of 4-Methylquinazoline Based PI3K Inhibitors for the Potential Treatment of Idiopathic Pulmonary Fibrosis” (J Med Chem, 2019):

What was measured:
[1] = simulated gi fluid, 1 h, pH 6.5
[2] = buffer, 1 h, pH 7.4

For `COc1ncc(-c2cc(OC3CCOCC3)c3nc(N)nc(C)c3c2)cc1NS(=O)(=O)c1ccc(F)cc1F`, the Therm_solubility [1] was “Soluble” and the Therm_solubility [2] was “Soluble”.
